Some of the results follow. The main result of the screen is listed elsewhere. These columns were measured beside it and carry no call. Most of these compounds were active or inconclusive in the main read-out, so they are no random draw. Words in brackets tell the shape of the fitted curve; partial curves, single points and poor fits give uncertain potencies.
Test: qHTS Assay for Lipid Storage Modulators in Drosophila S3 Cells;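 as to cell number change: cells counted by Cell Tracker Red CMTPX staining in the red channel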
Conditions: BODIPY lipid droplet fluorescence, 18-24 h; for cell number change: measured here: cell count max response, cells fed with added oleic acid
Procedure, shortened: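 Laser-scanning cytometry quantifies lipid droplet accumulation (500–530 nm total intensity; droplet/cell object ratio) in oleic acid-fed (400 uM added) Drosophila S3 cells treated with a concentration series. 20 uM Triacsin C defined 100% inhibition.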

[1] = measured here: lipid fluorescence (Fed channel) AC50, cells fed with added oleic acid
[2] = measured here: cell number channel AC50, cells fed with added oleic acid

| SMILES | cell number change [%] | AC50 [1] | AC50 [2] |
| --- | --- | --- | --- |
| CCOc1cc(S(=O)(=O)N2CCCCCC2)ccc1F | 6 | 29.1 µM [falling, single point] |  |
| Cc1ccc(S(=O)(=O)/C(C#N)=C/c2c(N3CCOCC3)nc3c(C)cccn3c2=O)cc1 | 2.95 | 0.0731 µM [rising, full curve, poor fit] |  |
| O=C(CSc1ncn(-c2ccccc2)n1)Nc1nc2c(s1)CCCC2 |  | 20.6 µM [rising, partial curve] | 2.91 µM [rising, partial curve] |
| CCOc1ccc(S(=O)(=O)NCc2ccccc2)cc1C(N)=O | -16.7 | 10 µM [falling, partial curve] |  |
| Cc1cccc(NC(=S)NCc2ccccc2Cl)c1C | -15 |  |  |
| CCOC(=O)CN1CC23C=CC(O2)C(C(=O)Nc2ccc(OC)cc2OC)C3C1=O (configuration not stated) | -2.42 |  |  |
| COc1ccc2oc(C(=O)Nc3nc(-c4ccccn4)cs3)c(C)c2c1 | -73.3 | 18.4 µM [falling, single point] | 14.6 µM [falling, partial curve] |
| Cc1ccc(NC(=O)[C@@H](CC(C)C)NC(=O)[C@@H]2Cc3ccccc3CN2)cc1 | 20.6 | 29.1 µM [rising, single point] |  |
| COc1cc(NC(=O)c2ccco2)c(OC)cc1NC(=O)CSc1ncc(-c2ccc(F)cc2)[nH]1 | -15.3 | 7.31 µM [falling, single point] |  |
| Cc1ccc(S(=O)(=O)Nc2cccc(C(=O)N3CCN(c4ccccc4O)CC3)c2)cc1F | 12.3 |  |  |
| CC(=O)N1CCN(c2ccc(NC(=O)c3ccc4c(c3)OCO4)cc2)CC1 | 6.85 | 0.0326 µM [rising, full curve, poor fit] |  |
| N#C/C(=C\c1ccc(Sc2nc3ccccc3[nH]2)o1)c1ccccc1 |  | 2.06 µM [rising, partial curve] | 3.66 µM [rising, partial curve, poor fit] |
| CCC(C(=O)Oc1c(C(C)C)cccc1C(C)C)c1ccccc1 (configuration not stated) | -34.9 | 0.461 µM [rising, single point] | 9.2 µM [falling, single point] |
| CC1(C)Cc2c(C#N)c(N3CCN(C(=O)c4ccco4)CC3)nc(-c3ccco3)c2CS1 | -24.6 | 10.3 µM [falling, single point] |  |
| CCC(N=c1cc(-c2ccc(OC)cc2)oc2ccc(C)cc12)C(=O)O (configuration not stated) | -50 |  | 29.1 µM [falling, partial curve, poor fit] |
| CCc1sc(C(=O)NNC(=O)CNC(=O)c2ccccc2F)cc1C | -8.77 | 0.0058 µM [rising, full curve, poor fit] |  |
| CCOC(=O)c1c(C)oc2c1c(CN1CCN(C(=O)OCC)CC1)c(O)c1ccccc12 | -65.1 |  | 13 µM [falling, partial curve] |
| CC1(C)CC(=O)C=C(N2CCN(C3=CC(=O)CC(C)(C)C3)CC2)C1 | -12.5 |  | 6.51 µM [falling, single point] |
| COc1ccccc1-c1oc2ccccc2c1C#CC(C)(C)O | 3.04 | 0.092 µM [falling, full curve] | 0.164 µM [falling, full curve] |

| SMILES | cell number change [%] | AC50 [1] | AC50 [2] |
| --- | --- | --- | --- |
| COc1cc(C2C3C(=O)N(Cc4ccccc4)C(=O)C3ON2c2ccccc2)cc(OC)c1O (configuration not stated) | -11.6 |  |  |
| CCC(C(=O)O)n1nnc(-c2ccc(OCc3ccccc3)c(OC)c2)n1 (configuration not stated) | -12.2 | 2.91 µM [rising, partial curve] |  |
| CC(Sc1nc(N)c(NC(=O)c2ccc(Br)o2)c(=O)[nH]1)C(=O)O (configuration not stated) | -6.52 |  | 0.00461 µM [falling, full curve, poor fit] |
| O=C(Cc1cc(=O)[nH][nH]1)N/N=C/C=C/c1ccccc1 | -12.1 | 0.146 µM [falling, full curve, poor fit] |  |
| COc1ccc(CNC(=O)C(C)N2C(=O)NC(c3ccccc3)(c3ccccc3)C2=O)cc1 (configuration not stated) | -1.91 | 5.17 µM [falling, full curve] | 0.517 µM [falling, single point] |
| CN1CCO/C1=C(\C(Cl)=C(Cl)Cl)[N+](=O)[O-] | 31.3 | 0.206 µM [rising, single point] |  |
| O=C(c1ccc([N+](=O)[O-])s1)N1CCCc2ccccc21 | 11.5 | 5.17 µM [rising, single point] |  |
| CC(=O)Nc1c(O)nc(SCC(=O)Nc2c(C)cccc2C)[nH]c1=O | -6.46 |  |  |
| Cc1c(C(=O)O)cccc1-c1ccc(/C=C2/NC(=O)N(c3ccccc3)C2=O)o1 | 7.92 | 0.0103 µM [rising, full curve, poor fit] |  |
| Nc1nc(SCC(=O)NCCCO)nc2sc3c(c12)CCC3 | -18 | 0.0231 µM [rising, full curve, poor fit] |  |
| COc1cc(C2C(C(=O)c3ccc(C)o3)=C(O)C(=O)N2c2cc(C)on2)ccc1OCc1ccccc1 (configuration not stated) | -2.82 | 29.1 µM [falling, single point] |  |
| CCN(CC(=O)Nc1c(F)cccc1F)C(=O)c1ccc(S(=O)(=O)NCc2ccco2)cc1 | -23.1 | 29.1 µM [rising, single point] |  |
| COc1ccc(NC(=O)c2csc3c2CCCC3)cc1 |  |  | 1.03 µM [rising, full curve, poor fit] |
| O=C(CBr)c1ccc([N+](=O)[O-])c(CS(=O)(=O)c2ccc(Cl)cc2)c1 | -51 | 29.1 µM [falling, single point] | 29.1 µM [falling, single point] |
| COc1cc(OC)nc(NC(=O)CN2CCN(c3ccc(F)cc3)CC2)n1 | 14.8 |  |  |
| CCn1c(/C=C/c2ccccc2[N+](=O)[O-])nc2ccccc2c1=O | 41.9 | 29.1 µM [rising, partial curve, poor fit] | 0.461 µM [rising, full curve, poor fit] |
| COc1ccc(CNC(=O)CCCNS(=O)(=O)c2cccc3nonc23)cc1 | -1.42 | 29.1 µM [rising, single point] |  |
| Cc1ccc(C(=O)Nc2cccc(C(=O)N3CCN(C)CC3)c2)cc1 | -13.5 |  |  |

Two of the compounds above, bar-delimited:
SMILES | cell number change [%] | AC50 [1] | AC50 [2]
CCN(CC(=O)Nc1c(F)cccc1F)C(=O)c1ccc(S(=O)(=O)NCc2ccco2)cc1 | -23.1 | 29.1 µM [rising, single point] | 
COc1ccc(NC(=O)c2csc3c2CCCC3)cc1 |  |  | 1.03 µM [rising, full curve, poor fit]
